Test results taken from the supplement of paper PMC10849652.
The list shows a part of the results.

Sequences of proteins named here, by UniProt entry; tags and fusion partners are left off. A change or cut given only in a name is not applied to a line headed by its entry.
UniProt Q9NQ35: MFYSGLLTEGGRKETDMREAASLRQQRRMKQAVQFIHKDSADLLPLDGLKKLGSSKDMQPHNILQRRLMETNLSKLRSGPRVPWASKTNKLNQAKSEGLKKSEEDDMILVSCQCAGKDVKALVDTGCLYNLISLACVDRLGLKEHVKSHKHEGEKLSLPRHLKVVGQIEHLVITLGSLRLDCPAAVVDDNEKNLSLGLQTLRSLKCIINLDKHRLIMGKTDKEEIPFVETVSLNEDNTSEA
UniProt Q96L73: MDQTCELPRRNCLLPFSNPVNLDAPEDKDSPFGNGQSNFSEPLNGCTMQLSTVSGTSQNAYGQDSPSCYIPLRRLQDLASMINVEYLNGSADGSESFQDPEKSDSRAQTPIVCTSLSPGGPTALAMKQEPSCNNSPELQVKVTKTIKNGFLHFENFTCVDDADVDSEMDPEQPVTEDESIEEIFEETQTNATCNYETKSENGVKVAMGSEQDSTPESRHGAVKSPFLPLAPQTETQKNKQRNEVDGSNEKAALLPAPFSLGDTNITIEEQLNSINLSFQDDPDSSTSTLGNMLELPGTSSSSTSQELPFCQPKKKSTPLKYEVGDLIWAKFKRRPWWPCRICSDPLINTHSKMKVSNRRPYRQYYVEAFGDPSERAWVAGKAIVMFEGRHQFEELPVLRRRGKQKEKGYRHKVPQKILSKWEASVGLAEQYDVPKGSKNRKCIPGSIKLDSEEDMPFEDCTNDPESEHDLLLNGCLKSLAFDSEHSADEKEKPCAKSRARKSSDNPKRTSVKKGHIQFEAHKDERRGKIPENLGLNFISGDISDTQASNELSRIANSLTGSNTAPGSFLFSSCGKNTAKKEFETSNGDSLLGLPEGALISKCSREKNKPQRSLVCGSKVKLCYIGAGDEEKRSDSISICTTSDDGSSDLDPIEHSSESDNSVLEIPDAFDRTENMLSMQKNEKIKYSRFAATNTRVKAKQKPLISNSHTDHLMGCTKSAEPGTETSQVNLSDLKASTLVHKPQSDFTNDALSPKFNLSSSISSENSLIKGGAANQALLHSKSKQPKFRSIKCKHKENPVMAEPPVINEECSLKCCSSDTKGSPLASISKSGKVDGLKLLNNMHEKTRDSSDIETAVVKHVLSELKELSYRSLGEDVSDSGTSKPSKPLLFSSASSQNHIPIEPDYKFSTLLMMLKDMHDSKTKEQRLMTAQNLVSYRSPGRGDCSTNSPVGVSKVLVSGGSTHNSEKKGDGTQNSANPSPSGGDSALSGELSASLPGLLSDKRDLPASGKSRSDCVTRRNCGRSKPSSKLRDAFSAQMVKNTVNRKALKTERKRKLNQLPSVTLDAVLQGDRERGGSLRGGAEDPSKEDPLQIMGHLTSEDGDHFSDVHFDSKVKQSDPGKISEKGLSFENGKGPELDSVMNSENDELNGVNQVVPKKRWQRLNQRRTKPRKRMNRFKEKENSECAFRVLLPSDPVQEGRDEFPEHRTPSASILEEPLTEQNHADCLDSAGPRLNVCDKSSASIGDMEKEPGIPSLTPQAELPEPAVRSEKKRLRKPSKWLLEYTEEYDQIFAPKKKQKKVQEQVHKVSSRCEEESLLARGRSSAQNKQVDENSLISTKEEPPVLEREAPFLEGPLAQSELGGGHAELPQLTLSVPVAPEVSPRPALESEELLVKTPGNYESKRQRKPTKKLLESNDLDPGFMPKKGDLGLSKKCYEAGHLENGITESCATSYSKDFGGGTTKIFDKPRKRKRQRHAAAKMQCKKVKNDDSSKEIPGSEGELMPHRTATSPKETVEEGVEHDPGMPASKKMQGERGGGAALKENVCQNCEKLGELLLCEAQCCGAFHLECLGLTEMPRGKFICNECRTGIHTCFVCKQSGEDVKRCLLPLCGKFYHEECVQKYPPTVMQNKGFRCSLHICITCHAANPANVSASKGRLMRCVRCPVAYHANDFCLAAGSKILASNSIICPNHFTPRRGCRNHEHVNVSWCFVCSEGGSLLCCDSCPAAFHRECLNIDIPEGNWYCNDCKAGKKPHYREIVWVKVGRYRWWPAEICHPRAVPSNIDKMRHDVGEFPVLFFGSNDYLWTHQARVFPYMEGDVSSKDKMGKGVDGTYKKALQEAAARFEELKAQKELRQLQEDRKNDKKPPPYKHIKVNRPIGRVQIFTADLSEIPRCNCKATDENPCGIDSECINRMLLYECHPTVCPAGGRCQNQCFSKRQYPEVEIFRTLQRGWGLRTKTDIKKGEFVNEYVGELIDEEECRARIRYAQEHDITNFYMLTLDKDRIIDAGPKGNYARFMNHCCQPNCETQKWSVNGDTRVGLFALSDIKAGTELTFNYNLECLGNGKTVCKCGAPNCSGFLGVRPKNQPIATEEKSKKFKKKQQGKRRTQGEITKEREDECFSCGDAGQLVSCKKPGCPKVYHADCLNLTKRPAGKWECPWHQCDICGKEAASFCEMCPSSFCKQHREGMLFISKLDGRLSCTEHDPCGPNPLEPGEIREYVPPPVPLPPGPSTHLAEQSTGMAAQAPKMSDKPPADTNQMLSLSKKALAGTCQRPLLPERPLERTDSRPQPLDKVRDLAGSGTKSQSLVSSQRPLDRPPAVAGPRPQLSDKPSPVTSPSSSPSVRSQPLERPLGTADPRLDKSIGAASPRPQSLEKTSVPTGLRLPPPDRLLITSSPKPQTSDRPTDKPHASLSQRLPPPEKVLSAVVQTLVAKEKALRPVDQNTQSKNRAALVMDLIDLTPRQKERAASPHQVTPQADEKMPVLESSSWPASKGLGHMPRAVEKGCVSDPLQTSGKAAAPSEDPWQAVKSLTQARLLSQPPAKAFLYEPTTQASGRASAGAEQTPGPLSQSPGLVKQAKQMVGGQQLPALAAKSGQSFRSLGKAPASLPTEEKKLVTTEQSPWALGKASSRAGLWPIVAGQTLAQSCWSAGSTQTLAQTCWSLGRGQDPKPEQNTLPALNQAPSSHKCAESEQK
UniProt Q96MY1: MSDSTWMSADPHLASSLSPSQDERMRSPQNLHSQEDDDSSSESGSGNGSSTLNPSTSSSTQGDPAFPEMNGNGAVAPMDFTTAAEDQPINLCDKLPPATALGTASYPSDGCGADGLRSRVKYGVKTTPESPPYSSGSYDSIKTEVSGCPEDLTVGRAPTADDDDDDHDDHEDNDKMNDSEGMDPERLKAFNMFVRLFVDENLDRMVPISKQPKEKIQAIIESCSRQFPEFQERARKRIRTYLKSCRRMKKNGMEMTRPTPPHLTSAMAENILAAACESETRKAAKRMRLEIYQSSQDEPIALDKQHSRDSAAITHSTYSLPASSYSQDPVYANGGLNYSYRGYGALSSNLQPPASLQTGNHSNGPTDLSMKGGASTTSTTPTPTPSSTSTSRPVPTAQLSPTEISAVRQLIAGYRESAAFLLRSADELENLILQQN
UniProt Q92859: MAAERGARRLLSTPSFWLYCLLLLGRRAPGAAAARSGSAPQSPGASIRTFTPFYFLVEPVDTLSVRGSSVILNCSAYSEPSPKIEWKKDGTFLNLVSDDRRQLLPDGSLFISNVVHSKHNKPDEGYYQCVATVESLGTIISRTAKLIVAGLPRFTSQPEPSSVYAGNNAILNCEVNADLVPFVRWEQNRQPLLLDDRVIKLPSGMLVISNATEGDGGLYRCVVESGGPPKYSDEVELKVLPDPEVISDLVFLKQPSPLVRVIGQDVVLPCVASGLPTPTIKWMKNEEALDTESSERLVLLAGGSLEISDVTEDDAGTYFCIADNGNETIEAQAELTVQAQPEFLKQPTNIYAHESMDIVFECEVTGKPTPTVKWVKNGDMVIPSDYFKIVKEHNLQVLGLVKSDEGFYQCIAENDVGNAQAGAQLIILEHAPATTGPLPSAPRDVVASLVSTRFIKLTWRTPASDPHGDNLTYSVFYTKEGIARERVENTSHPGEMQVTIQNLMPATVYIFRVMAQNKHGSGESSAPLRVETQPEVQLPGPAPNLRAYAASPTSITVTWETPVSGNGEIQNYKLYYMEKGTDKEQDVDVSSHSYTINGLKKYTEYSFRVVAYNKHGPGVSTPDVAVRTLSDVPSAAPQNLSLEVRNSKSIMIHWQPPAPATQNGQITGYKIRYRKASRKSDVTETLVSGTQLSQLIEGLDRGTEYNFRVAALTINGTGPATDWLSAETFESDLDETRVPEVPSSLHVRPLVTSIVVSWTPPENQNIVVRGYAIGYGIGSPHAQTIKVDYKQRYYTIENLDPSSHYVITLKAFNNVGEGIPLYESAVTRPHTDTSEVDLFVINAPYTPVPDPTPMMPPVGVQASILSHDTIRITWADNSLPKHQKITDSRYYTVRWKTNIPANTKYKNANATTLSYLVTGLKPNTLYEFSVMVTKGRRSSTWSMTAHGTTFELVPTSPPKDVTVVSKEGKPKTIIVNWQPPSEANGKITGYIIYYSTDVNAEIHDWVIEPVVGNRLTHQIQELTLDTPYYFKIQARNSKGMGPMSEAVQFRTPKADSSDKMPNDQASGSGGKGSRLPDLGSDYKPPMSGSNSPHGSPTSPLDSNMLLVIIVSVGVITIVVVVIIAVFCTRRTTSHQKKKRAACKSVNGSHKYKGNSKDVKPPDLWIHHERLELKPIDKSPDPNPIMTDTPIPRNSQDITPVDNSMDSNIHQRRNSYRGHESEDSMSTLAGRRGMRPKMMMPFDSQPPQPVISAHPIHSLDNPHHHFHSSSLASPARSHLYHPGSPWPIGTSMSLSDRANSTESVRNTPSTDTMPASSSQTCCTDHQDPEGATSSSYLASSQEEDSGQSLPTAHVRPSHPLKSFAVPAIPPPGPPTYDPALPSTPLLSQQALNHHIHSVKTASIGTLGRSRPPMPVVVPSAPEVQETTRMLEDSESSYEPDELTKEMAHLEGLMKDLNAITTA
UniProt O60936: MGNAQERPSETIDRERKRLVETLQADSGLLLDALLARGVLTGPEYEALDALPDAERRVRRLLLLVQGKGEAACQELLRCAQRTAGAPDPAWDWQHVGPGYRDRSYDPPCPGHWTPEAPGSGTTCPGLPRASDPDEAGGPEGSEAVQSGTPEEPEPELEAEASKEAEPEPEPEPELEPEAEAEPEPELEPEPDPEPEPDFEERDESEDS
UniProt Q9UQ49: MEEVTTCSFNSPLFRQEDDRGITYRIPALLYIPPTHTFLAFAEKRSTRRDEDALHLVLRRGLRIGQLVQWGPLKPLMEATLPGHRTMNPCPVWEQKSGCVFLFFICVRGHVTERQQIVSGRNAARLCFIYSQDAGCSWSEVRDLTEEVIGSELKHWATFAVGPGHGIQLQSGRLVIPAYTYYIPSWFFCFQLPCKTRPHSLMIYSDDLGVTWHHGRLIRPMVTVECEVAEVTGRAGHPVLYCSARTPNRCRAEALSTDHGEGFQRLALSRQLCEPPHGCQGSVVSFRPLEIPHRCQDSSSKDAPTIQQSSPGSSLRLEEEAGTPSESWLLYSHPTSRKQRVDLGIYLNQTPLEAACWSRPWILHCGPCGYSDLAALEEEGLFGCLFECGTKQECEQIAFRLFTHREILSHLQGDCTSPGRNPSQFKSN
UniProt P78316: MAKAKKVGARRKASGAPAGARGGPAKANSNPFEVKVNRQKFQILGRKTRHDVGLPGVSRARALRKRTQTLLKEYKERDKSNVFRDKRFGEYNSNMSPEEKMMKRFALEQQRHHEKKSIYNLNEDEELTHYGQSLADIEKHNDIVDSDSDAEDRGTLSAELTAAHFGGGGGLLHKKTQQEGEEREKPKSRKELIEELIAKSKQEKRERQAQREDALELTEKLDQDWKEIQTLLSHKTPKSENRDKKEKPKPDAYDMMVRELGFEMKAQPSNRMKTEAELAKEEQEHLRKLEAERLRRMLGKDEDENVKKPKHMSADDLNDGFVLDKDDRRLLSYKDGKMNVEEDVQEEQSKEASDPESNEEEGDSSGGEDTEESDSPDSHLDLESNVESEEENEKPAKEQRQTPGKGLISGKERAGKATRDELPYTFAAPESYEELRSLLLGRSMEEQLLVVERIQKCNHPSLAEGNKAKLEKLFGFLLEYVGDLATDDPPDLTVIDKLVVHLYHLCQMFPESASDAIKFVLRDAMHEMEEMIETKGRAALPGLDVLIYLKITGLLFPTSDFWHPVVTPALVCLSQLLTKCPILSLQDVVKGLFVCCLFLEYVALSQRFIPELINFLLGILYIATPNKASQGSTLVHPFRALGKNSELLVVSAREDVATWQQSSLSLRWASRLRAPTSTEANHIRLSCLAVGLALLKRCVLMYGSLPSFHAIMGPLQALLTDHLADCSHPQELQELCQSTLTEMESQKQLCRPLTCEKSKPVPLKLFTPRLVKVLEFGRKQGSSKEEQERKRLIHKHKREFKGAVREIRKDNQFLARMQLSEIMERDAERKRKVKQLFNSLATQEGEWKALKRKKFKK
UniProt Q9BS92: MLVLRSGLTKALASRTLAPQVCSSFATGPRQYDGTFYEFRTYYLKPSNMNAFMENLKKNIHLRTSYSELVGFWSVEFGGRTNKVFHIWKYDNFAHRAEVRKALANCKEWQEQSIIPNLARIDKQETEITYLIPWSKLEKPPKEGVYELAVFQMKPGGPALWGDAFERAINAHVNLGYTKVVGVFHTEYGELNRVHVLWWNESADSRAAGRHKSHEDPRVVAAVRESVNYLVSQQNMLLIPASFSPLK

Assays:
Assay in all cases: log2 fold change, soluble protein after heating vs DMSO (PISA); higher = thermal stabilisation; K562 cells, 10 uM, 30 min; active = over 0.2 and 3.5 SD of the protein, either way, in both replicates (recomputed)
[1] = compound: C1=CC(=C(C=C1Cl)C2=NC3=NC=CN=C3C(=N2)NC4=CC=NC=C4)F
Outline: (§1)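 K562 cells at 2×10^6 cells/mL were treated with 10 μM compound for 30 min. Aliquots were heated for 3 min across 48°C-58°C, pooled, and extracted in PBS with 0.5% NP-40 at 4°C; soluble protein was the supernatant after 21,000xg for 90 min. Soluble protein was quantified by TMTpro 16plex LC-MS/MS with channel sums equalised, and reported as log2 fold change in thermal stability against DMSO controls, with values from duplicates.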

[2] = compound: C1=CC2=NC=CN=C2C=C1/C=C/3\C(=O)NC(=O)S3
Outline: as §1

erlotinib = compound: C#Cc1cccc(Nc2ncnc3cc(OCCOC)c(OCCOC)cc23)c1 [erlotinib]
Outline: as §1

[3] = compound: C1=CC(=CC=C1C2=NC3=C(N2)C=C(C=C3)C(=O)N)OC4=CC=C(C=C4)Cl
Outline: as §1

[4] = compound: C/C(=N\NC(=O)C1=CC(=CC=C1)S(=O)(=O)N2CCOCC2)/C3=C(C=CC(=C3)Cl)O
Outline: as §1

[5] = compound: C1=CC2=C(C=CC(=C2)/C=C\3/C(=O)NC(=NCC4=CC=CS4)S3)N=C1
Outline: as §1

[6] = compound: C1=CC=C(C=C1)C2=NC(=C(N2)C3=CC=NC=C3)C4=CC(=C(C=C4)Cl)O
Outline: as §1

[7] = compound: C1=CC=C2C(=C1)C3=NNC4=CC=CC(=C43)C2=O
Outline: as §1

[8] = compound: C1CCN(C1)C(=O)NC2=CC=CC(=C2)NC3=NC=C(C(=N3)NCCC4=CN=CN4)Br
Outline: as §1

[9] = compound: C1CN(CCC1(CC2=CC=C(C=C2)Cl)N)C3=NC=NC4=C3C=CN4
Outline: as §1

Measured: log2 fold change

NSA2 (UniProt O95478)
inactive: [1] -0.333 | [2] -0.084

NFKBIA (UniProt P25963)
inactive: erlotinib -0.034 | [3] 0.286

NFATC1 (UniProt O95644)
inactive: [1] 0

NOL6 (UniProt Q9H6R4)
inactive: [4] -0.032 | [1] -0.197 | [5] -0.17 | [2] -0.006 | [6] 0.026 | [7] -0.113 | [8] 0.059 | [9] 0.043

NFATC4 isoform 2 (UniProt Q14934)
inactive: [4] -0.026 | [1] 0.146 | [5] 0.286 | [2] 0.001 | [6] 0.098 | [7] 0.197 | [8] -0.027 | [9] 0.061

NPC1L1 (UniProt Q9UHC9)
inactive: [4] 0.006 | [5] 0.073 | [2] 0.143 | [7] -0.02 | [8] 0 | [9] -0.033

NRIP3 (UniProt Q9NQ35)
inactive: [4] -0.159 | [5] -0.061 | [7] -0.142

NKTR (UniProt P30414)
inactive: erlotinib 0.597 | [3] 0.028 | [2] -0.149

NOS1AP (UniProt O75052)
inactive: erlotinib 0.134 | [1] 0.517 | [3] -0.006 | [2] -0.02 | [6] -0.248 | [8] -0.208
active: [9] 1.09

NIPSNAP2 (UniProt C9J7B1)
inactive: [4] -0.171 | [5] -0.16 | [2] 0.057 | [7] -0.138

NOP10 (UniProt Q9NPE3)
inactive: erlotinib -0.122 | [3] 0.164 | [2] 0.007 | [6] -0.142

NMNAT3 (UniProt Q96T66)
inactive: erlotinib 0.342 | [1] 0.071 | [3] -0.031 | [2] 0.05

NSD1 (UniProt Q96L73)
inactive: erlotinib 0.022 | [4] -0.154 | [3] 0.022 | [5] -0.178 | [2] 0 | [7] -0.032

NLRX1 (UniProt Q86UT6)
inactive: erlotinib -0.012 | [1] 0.063 | [3] 0.046 | [8] 0.03 | [9] 0.038

NOLC1 isoform 3 (UniProt Q14978)
inactive: erlotinib 0.002 | [3] 0.183

NOL9 (UniProt Q5SY16)
inactive: erlotinib 0.179 | [3] 0.068

NRBP2 (UniProt Q9NSY0)
inactive: erlotinib 0.146 | [3] -0.128 | [6] -0.024

NOL4L (UniProt Q96MY1)
inactive: erlotinib -0.004 | [1] 0.107 | [3] -0.2 | [8] -0.057 | [9] 0.13

NKIRAS2 (UniProt Q9NYR9)
inactive: erlotinib 0.266 | [1] -0.002 | [3] -0.072 | [8] -0.049 | [9] -0.167

NEO1 (UniProt Q92859)
inactive: [4] -0.378 | [5] 0.371 | [6] -0.051 | [7] -0.286 | [8] -0.145 | [9] 0.223

NOTCH1 (UniProt P46531)
inactive: [1] -0.016

NOL3 isoform 3 (UniProt O60936)
inactive: [1] -0.056 | [6] 0.067 | [8] 0.061 | [9] 0.076

NOSTRIN isoform 4 (UniProt Q8IVI9)
inactive: erlotinib -0.05 | [4] 0.002 | [3] -0.07 | [5] 0.178 | [6] 0.186 | [7] -0.214

Fetched one by one from the entries so far (two):
NEO1 (UniProt Q92859)
inactive: [4] -0.378 | [5] 0.371 | [6] -0.051 | [7] -0.286 | [8] -0.145 | [9] 0.223

NOTCH1 (UniProt P46531)
inactive: [1] -0.016

Going on with the list:

NGDN (UniProt Q8NEJ9)
inactive: [6] -0.195 | [8] 0.183 | [9] -0.168

NEU3 isoform 2 (UniProt Q9UQ49)
inactive: erlotinib 0.164 | [3] 0

NOD1 (UniProt Q9Y239)
inactive: [1] -0.057 | [2] 0.018 | [6] -0.118

NME4 (UniProt O00746)
inactive: erlotinib -0.147 | [3] 0.03 | [6] -0.049

NOMO3 (UniProt P69849)
inactive: erlotinib -0.001 | [1] -0.131 | [3] 0.022 | [2] 0.072

NOP14 (UniProt P78316)
inactive: [4] 0.042 | [1] -0.124 | [5] -0.163 | [7] -0.028 | [8] 0.069 | [9] -0.06

NFKB2 (UniProt Q00653)
inactive: [4] -0.292 | [1] -0.005 | [5] 0.198 | [2] 0.091 | [6] -0.096 | [7] -0.336 | [8] -0.178 | [9] -0.473

NMRK1 (UniProt Q9NWW6)
inactive: erlotinib -0.188 | [3] 0.16

NIPSNAP3B (UniProt Q9BS92)
inactive: erlotinib -0.061 | [4] -0.014 | [3] -0.071 | [5] -0.159 | [2] 0.031 | [7] 0.007 | [8] 0.008 | [9] 0.051

NFKB1 isoform 2 (UniProt P19838)
inactive: [4] 0.152 | [1] -0.132 | [3] 0.003 | [5] -0.009 | [2] 0.003 | [6] 0.078 | [7] 0.01 | [8] -0.012 | [9] -0.085

NRSN2 (UniProt Q9GZP1)
inactive: erlotinib -0.037 | [1] -0.075 | [3] -0.061 | [8] -0.12 | [9] 0.013
